Experimental data: patent publication US7838491B2, “Self-assembly and mineralization of peptide-amphiphile nanofibers” (Northwestern University, priority 2001, dated 2010)

Test: mineralization of PA fibers on TEM grid with CaCl2 and Na2HPO4

CCCCCCCCCCCCCCCC(=O)N[C@@H](CS)C(=O)N[C@@H](CS)C(=O)N[C@@H](CS)C(=O)N[C@@H](CS)C(=O)NCC(=O)NCC(=O)NCC(=O)N[C@@H](CO)C(=O)N[C@@H](CCCNC(=N)N)C(=O)NCC(=O)N[C@@H](CC(=O)O)C(=O)O [PA 14, CCCCGGGSRGD] (Palmitoyl-CCCCGGGSRGD-OH)
mineral observed by TEM (20 min incubation with CaCl2 and Na2HPO4, listed as Nonphosphorylated PA): only amorphous mineral deposit concentrate on the fibers | mineral observed by TEM (20 min incubation with CaCl2 and Na2HPO4, listed as nonphosphorylated fibers): an amorphous mineral deposit around the fibers was observed, but crystals did not form within this time frame | mineral observed by TEM (30 min incubation with CaCl2 and Na2HPO4, listed as Nonphosphorylated PA): continue to show only amorphous mineral | mineral observed by TEM (30 min incubation with CaCl2 and Na2HPO4, listed as nonphosphorylated fibers): an amorphous mineral deposit around the fibers was observed, but crystals did not form within this time frame

Peptide text beside a SMILES is read from it. * marks the point of attachment. Palmitoyl = CCCCCCCCCCCCCCCC(=O)*
